# At least one compound was matched to its structure with a doubt left.
# Tested on: LPA18:2 in mouse plasma
# Assay: Inhibition of LPA in mouse plasma (plasma LPA18:2 assay, LC-MS/MS)
# Assay type: biochemical, CD1 mice
# Settings: fresh CD1 mouse plasma, LPA18:2, 37° C. for 120 min
# Procedure: Effect Example 2. Inhibition of LPA in Mouse Plasma by Compounds
# 20 mM stock solutions of the compounds were prepared with DMSO and then diluted to 1 mM, which was subjected to a serial 3-fold dilution to yield 10 working solutions.
# Collection of Fresh Mouse Plasma:
# CD1 mice were euthanized by CO2 inhalation. Approximately 1 mL of whole blood was taken by cardiac puncture, with EDTA-K2 for anticoagulation. The blood was centrifuged at 3220 g for 10 min at 4° C. for plasma collection.
# Reactions were performed in a 96-well plate, and the samples were tested in duplicate. 1 μL of each working solution was added to 100 μL of plasma, with the final concentrations of […]. 1 μL of DMSO was added to plasma to serve as blank. The samples were incubated in a water bath at 37° C. for 120 min, and 600 μL of 10 μM tolbutamide in methanol was added to terminate the reaction. Tolbutamide also served as an internal standard. […] 100 μL of the supernatant was transferred to a new plate, diluted with water based on LC-MS response and peak shapes, mixed well and analyzed by LC-MS/MS.
# LPA18:2 was quantified using peak area ratio (LPA18:2/internal standard), requiring no standard curve. […] IC50 was calculated using Graphpad Prism 6.0 software.
smiles,measurement,value
"CCc1nn2ccc(N3CCN(CC(=O)N4CC(O)C4)CC3)nc2c1N(C)c1nc(-c2ccc(F)cc2)c(C#N)s1 [Compound S-0041, 2-((2-ethyl-5-(4-(2-(3-hydroxyazetidin-1-yl)-2-oxoethyl)piperazin-1-yl)pyrazolo[1,5-a]pyrimidin-3-yl)(methyl)amino)-4-(4-fluorophenyl)thiazole-5-carbonitrile]",IC50,36 nM
